Assay results taken from publication PMC7819943, “Rice protein-binding microarrays: a tool to detect cis-acting elements near promoter regions in rice”.
Some of the results follow.

The chains behind the UniProt entries cited, without tags or fusion partners.
UniProt Q0JBA9, entry or part of it: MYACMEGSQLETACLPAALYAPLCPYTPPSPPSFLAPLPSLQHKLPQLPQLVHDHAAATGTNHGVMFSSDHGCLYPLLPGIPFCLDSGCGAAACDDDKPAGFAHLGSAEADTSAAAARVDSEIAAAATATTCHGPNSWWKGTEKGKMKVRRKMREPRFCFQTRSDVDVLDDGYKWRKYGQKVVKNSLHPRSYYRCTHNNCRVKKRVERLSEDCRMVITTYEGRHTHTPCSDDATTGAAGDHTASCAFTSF

The sequences below were run against OsWRKY34 (Oryza sativa, UniProt Q0JBA9 1-250) (assay: protein-binding microarray (RPBM); PBS, 2% BSA, 51.3 ng/ul salmon testes DNA, 50 uM zinc acetate, 200 nM TF, 25 C, 1 h; high values mean tight binding). Settings: protein: recombinant; tags: N-terminal polyhistidine and DsRed monomer fusion (pET32a); label: CyDye5-dUTP incorporated in the synthesized complementary strand; 3' TTTTT single-stranded linker to array surface; dsDNA, one strand shown.
How it was run: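 For the binding signal, per-feature fluorescence intensity was read in arbitrary units on an Axon 4000B scanner. Before scanning, a 2% BSA-blocked custom Agilent array made double-stranded with Cy5-dUTP was washed after 1 h at 25 °C with 200 nM protein and 50 µM zinc acetate. The proteins were Ni–NTA-purified transcription factors with N-terminal polyhistidine and DsRed fusions, expressed in E. coli BL21-CodonPlus.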

Sequence	binding signal
CAAAACAGTCACTACTCGTAACATGGTATAGGTGGTTGACCGGAGTCACCTAGTGCAG	8760 fluorescence intensity (a.u.)
CTCTTTCTCTTTCTCTTCTTCCCTTTCGTCTTCGTCTTCGCGGAGTCACCTAGTGCAG	8180 fluorescence intensity (a.u.)
ACACTAGGCCCAAGGCAAGCCCACCACTCGTGCTCGTAACCGGAGTCACCTAGTGCAG	10700 fluorescence intensity (a.u.)
CGTCGCCCGCCTCCACTCAGCTGCCGCCGCCTCCAAGACGCGGAGTCACCTAGTGCAG	8780 fluorescence intensity (a.u.)
GATCGCGGCCATCGTTAGACTCATCCCAGCCGTCCACCTACGGAGTCACCTAGTGCAG	9620 fluorescence intensity (a.u.)
CATTATTGTTTTATTATCGTGACACATGTTGTTCTCATAACGGAGTCACCTAGTGCAG	9650 fluorescence intensity (a.u.)
CCATATTTGCCAAGAAAGAAATGGGCCGGGGTTAATGTTTCGGAGTCACCTAGTGCAG	8680 fluorescence intensity (a.u.)
AAATTAGGTGTAGTTTTGATTTTTTCTGGTAACGTTTGACCGGAGTCACCTAGTGCAG	9180 fluorescence intensity (a.u.)
ATCTCTCACTGACATGTGGGGCCCACGACCTGCCTTATCCCGGAGTCACCTAGTGCAG	9270 fluorescence intensity (a.u.)
CTCCCTTGTAATTCCTAAATCCGTCTCTTCTTCCGCCGGCCGGAGTCACCTAGTGCAG	8310 fluorescence intensity (a.u.)
CCCATTGAACCCGTCTCTTCTACCCTTCGCCGACATCGCCCGGAGTCACCTAGTGCAG	8420 fluorescence intensity (a.u.)
TCCTTCTGTCAATCTGTCCACACTTTTTTCTCCCAGTGCACGGAGTCACCTAGTGCAG	12000 fluorescence intensity (a.u.)
GGTGTAGTGGTCGGTGCGGACGATGAGGTGGGAGAAATGGCGGAGTCACCTAGTGCAG	10100 fluorescence intensity (a.u.)
GCTGATGACGTCCCTATCGGTTCTTATCTCAGTTCCTCCCCGGAGTCACCTAGTGCAG	8140 fluorescence intensity (a.u.)
ACTGTTTGAGTACCTAATTTAACCCGGTTTTATAAGTTAACGGAGTCACCTAGTGCAG	8700 fluorescence intensity (a.u.)
GATCTTTCTACTACCTTATTCAACTGTTGGGTTGCCACTTCGGAGTCACCTAGTGCAG	10400 fluorescence intensity (a.u.)
CGCTTTCACACTGCCTCTTTCGCGCAGATCCATACAAAACCGGAGTCACCTAGTGCAG	9960 fluorescence intensity (a.u.)
GTGCTCTTCCGCTACTTGTTCCGGATAATATCCCTCTCATCGGAGTCACCTAGTGCAG	9120 fluorescence intensity (a.u.)
CCTTCATAGTACCACCACCACCACCACTCATCACATCTCACGGAGTCACCTAGTGCAG	8160 fluorescence intensity (a.u.)
TATCTTAGGTGTGCTACAATTTTATACATATGTGTTTATCCGGAGTCACCTAGTGCAG	8340 fluorescence intensity (a.u.)
CTACCTCCTTTGCTTTTGGTGTCTTTGGAATCACCGACACCGGAGTCACCTAGTGCAG	8190 fluorescence intensity (a.u.)
AATAATGGTTTGCTTTCGTTGAACGTCTGGACGTTGGAACCGGAGTCACCTAGTGCAG	8210 fluorescence intensity (a.u.)
GATGTTTGTAAATGTTTCAATTCATATTGATCTATGGCAACGGAGTCACCTAGTGCAG	8800 fluorescence intensity (a.u.)

An excerpt of these results, in markdown:

| Sequence | binding signal |
| --- | --- |
| CCCATTGAACCCGTCTCTTCTACCCTTCGCCGACATCGCCCGGAGTCACCTAGTGCAG | 8420 fluorescence intensity (a.u.) |
| TCCTTCTGTCAATCTGTCCACACTTTTTTCTCCCAGTGCACGGAGTCACCTAGTGCAG | 12000 fluorescence intensity (a.u.) |
